Values from PubChem BioAssay AID1671195 (Yale University, 2021)
The deposit covers about 22,000 reagents; shown is a part drawn at random. Over the whole deposit, about 1,510 (6.9%) are marked active. 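Active includes knockdowns raising or lowering LDL uptake; positive z-scores mean more uptake, negative mean less.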 Unmarked entries are inactive.

- Test: 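Knockdowns that increase or decrease uptake of fluorescent LDL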 (primary screen)
- Cell system: human Huh7 hepatoma cells
- Reagents: siRNA pool against human genes, 18 nM
- Timing: about 2 to 2.5 days of knockdown, then 8 h LDL uptake
- Conditions: DiI-labelled LDL at 30 µg/ml for 8 h, in lipoprotein-deficient serum medium
- Read-out: 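Per-cell DiI-LDL intensity by automated imaging; well means scaled to the plate median and given as a robust z-score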
- Scale: robust z-score: higher = more LDL uptake after knockdown
- Call rule: 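Active when two or more replicates show a robust z-score above 2 or below -2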

BHLHE22 (basic helix-loop-helix family member e22) → robust z-score, replicate 1 = 1.99; robust z-score, replicate 2 = 0.162; robust z-score, replicate 3 = 1.67
TIPE3 (TNF alpha induced protein 8 like 3) → robust z-score, replicate 1 = 0.999; robust z-score, replicate 2 = 1.27; robust z-score, replicate 3 = 0.723
LCE3D (late cornified envelope 3D) → robust z-score, replicate 1 = -0.156; robust z-score, replicate 2 = -0.0102; robust z-score, replicate 3 = 0.203
MAPK8IP3 (mitogen-activated protein kinase 8 interacting protein 3) → robust z-score, replicate 1 = 3.21 (active); robust z-score, replicate 2 = 2.54; robust z-score, replicate 3 = 0.707
IQCM (IQ motif containing M) → robust z-score, replicate 1 = -0.949; robust z-score, replicate 2 = -0.631; robust z-score, replicate 3 = -0.726
TMEM39B (transmembrane protein 39B) → robust z-score, replicate 1 = -0.997; robust z-score, replicate 2 = 0.701; robust z-score, replicate 3 = -0.531
FOXO1 (forkhead box O1) → robust z-score, replicate 1 = 0.365; robust z-score, replicate 2 = 0.546; robust z-score, replicate 3 = 0.314
UBE4B (ubiquitination factor E4B) → robust z-score, replicate 1 = 1.09; robust z-score, replicate 2 = 0.415; robust z-score, replicate 3 = -0.0881
LOC400144 (retired record) → robust z-score, replicate 1 = 0.312; robust z-score, replicate 2 = -0.508; robust z-score, replicate 3 = -0.821
TRPM3 → robust z-score, replicate 1 = -1.15; robust z-score, replicate 2 = -1.49; robust z-score, replicate 3 = -1.31
ZIC3 (Zic family zinc finger 3) → robust z-score, replicate 1 = -0.544; robust z-score, replicate 2 = -0.942; robust z-score, replicate 3 = -0.584

Laid out differently: 3 of the entries above.
{"gene":"IQCM (IQ motif containing M)","robust z-score, replicate 1":-0.949,"robust z-score, replicate 2":-0.631,"robust z-score, replicate 3":-0.726}
{"gene":"TMEM39B (transmembrane protein 39B)","robust z-score, replicate 1":-0.997,"robust z-score, replicate 2":0.701,"robust z-score, replicate 3":-0.531}
{"gene":"FOXO1 (forkhead box O1)","robust z-score, replicate 1":0.365,"robust z-score, replicate 2":0.546,"robust z-score, replicate 3":0.314}

Continued.
MS4A8 (membrane spanning 4-domains A8) → robust z-score, replicate 1 = 1.51; robust z-score, replicate 2 = 0.967; robust z-score, replicate 3 = 0.648
TRIT1 (tRNA isopentenyltransferase 1) → robust z-score, replicate 1 = -0.381; robust z-score, replicate 2 = -0.0955; robust z-score, replicate 3 = -0.444
LMOD1 (leiomodin 1) → robust z-score, replicate 1 = -1.3; robust z-score, replicate 2 = -2.34; robust z-score, replicate 3 = -0.353
CRYGN (crystallin gamma N) → robust z-score, replicate 1 = -1.4; robust z-score, replicate 2 = -0.227; robust z-score, replicate 3 = -1.5
CCL23 (C-C motif chemokine ligand 23) → robust z-score, replicate 1 = -1.76; robust z-score, replicate 2 = -1.46; robust z-score, replicate 3 = -1.32
NFYBP1 (NFYB pseudogene 1) → robust z-score, replicate 1 = 0.00842; robust z-score, replicate 2 = 0.0651; robust z-score, replicate 3 = -0.00297
TCF7L1 (transcription factor 7 like 1) → robust z-score, replicate 1 = -0.0625; robust z-score, replicate 2 = 0.0242; robust z-score, replicate 3 = -0.149
IL21 (interleukin 21) → robust z-score, replicate 1 = -0.598; robust z-score, replicate 2 = -0.171; robust z-score, replicate 3 = -0.102
PTPN14 (protein tyrosine phosphatase non-receptor type 14) → robust z-score, replicate 1 = -0.992; robust z-score, replicate 2 = -1.68; robust z-score, replicate 3 = -1.12
OR8D4 (olfactory receptor family 8 subfamily D member 4) → robust z-score, replicate 1 = -0.862; robust z-score, replicate 2 = -0.599; robust z-score, replicate 3 = -0.299
LOC389276 (retired record) → robust z-score, replicate 1 = -1.1; robust z-score, replicate 2 = -0.633; robust z-score, replicate 3 = -0.46
LOC442073 (retired record) → robust z-score, replicate 1 = -0.867; robust z-score, replicate 2 = -0.619; robust z-score, replicate 3 = -0.795
LOC440115 (retired record) → robust z-score, replicate 1 = 0.953; robust z-score, replicate 2 = 0.743; robust z-score, replicate 3 = 0.839
